Source: PubChem BioAssay AID2685 (National Center for Advancing Translational Sciences (NCATS), 2010)
The campaign covered roughly 320,000 compounds. About 2,100 (0.66%) were called active. Inconclusive results, whose numbers are uncertain, are shown with a selection of clear calls. Calls come from the whole dose curve; as a rule, active = well fitted inhibition curve with a large enough effect in the signal ratio, with a control signal flat (not every such curve was filed as active); inconclusive = small, poorly fitted or top-dose-only effect, or effect the other way, or a change in a side signal; inactive = flat fitted curve, though single readings scatter; the % refers to the signal ratio. Potencies of inconclusive entries are doubtful fits and often do not repeat.
% is set by controls: 0 for no effect and ±100 for the full control effect; potency is the fitted concentration of half-maximal effect.

Assay: qHTS Assay for Lipid Storage Modulators in Drosophila S3 Cells
Details: BODIPY lipid droplet fluorescence, 18-24 h, cells fed with added oleic acid; lipid storage change, negative = inhibition: at 46.1 µM (top of the series) unless noted
Outline: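 Drosophila S3 cells got compounds at several concentrations plus oleic acid (400 uM solution). Laser-scanning cytometry with 488 nm excitation read lipid droplets at 500-530 nm and cells at 575-640 nm. Percent activity was relative to 20 uM Triacsin C.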
For CCOc1ccc(NC(=O)CN(C)C(=O)c2c(-c3c(F)cccc3Cl)noc2C)cc1OCC, the lipid storage change, negative = inhibition was “inconclusive”.
With CC(C)N(C(=O)CSc1n[nH]c(=O)n1CCc1ccccc1)C(C)C the lipid storage change, negative = inhibition was inconclusive: -74%.
For CCn1c(=O)c(CCC(=O)N2CCN(c3ccccn3)CC2)c(C)c2c(C)nn(-c3ccccc3)c21, the lipid storage change, negative = inhibition was inconclusive: -35.6%.
For COc1cc(NC(=O)c2cccc([N+](=O)[O-])c2C)ccc1NC(=O)c1ccco1, the Potency was inconclusive: 4.61 µM [activator, full curve].
With Clc1ccc(Cn2cccn2)cn1 the lipid storage change, negative = inhibition was inconclusive: -13.6%.
For N#CC1=C(N)Oc2nc(-c3ccccc3)[nH]c2C1c1cccnc1 (stereo not given), the Potency was inconclusive: 0.116 µM [activator, full curve].
With CC(Sc1nc(N)cc(=O)[nH]1)C(=O)NCC(=O)Nc1ccc(F)c(F)c1F (stereo not given) the lipid storage change, negative = inhibition was inconclusive: -6.57%.
In the case of c1ccc(-c2nnc(SCc3nc4ccccc4[nH]3)n2Cc2ccco2)cc1, the Potency is reported as inconclusive: 1.84 µM [activator, full curve].
With CS(=O)(=O)N(Cc1ccc(C(=O)Nc2ccccc2Sc2ccccc2)cc1)c1ccccc1 the lipid storage change, negative = inhibition was inconclusive: -28.3%.
For Cc1cc(/C([O-])=C(/C(=S)Nc2ccccc2)[n+]2ccccc2)c(C)n1-c1ccccc1, the lipid storage change, negative = inhibition was inconclusive: -4.41%.
In the case of COc1ccc(NC(=O)CN(C)C(=O)CNC(=O)c2sc3ccccc3c2Cl)cc1, the lipid storage change, negative = inhibition is reported as inconclusive: 14.9%.
For CCN(CCO)c1ccc(-n2c(N)c(C(=O)OC)c3nc4ccccc4nc32)cc1, the lipid storage change, negative = inhibition was inconclusive: 12.6%.
For CCCCOc1ccc(C(=O)N2CCCCCC2)cc1, the lipid storage change, negative = inhibition was inconclusive: 48%.
With Cc1ccc(-c2nnc(SCC(=O)NC3CCCC3)n2C)cc1 the lipid storage change, negative = inhibition was inconclusive: 39.4%.
In the case of CC(=O)Nc1ccc(NC(=O)Cn2cnc3c(cnn3C(C)(C)C)c2=O)cc1, the lipid storage change, negative = inhibition is reported as inconclusive: -45.6%.
With CC1(c2ccccc2)CC(C)(C)N(C(=O)CSc2nnc(N)s2)c2ccccc21 (stereo not given) the lipid storage change, negative = inhibition was inconclusive: 140%.
For COC(=O)c1ccc(NC(=O)CCc2nnc3ccc(NCc4ccco4)nn23)cc1, the Potency was inconclusive: 29.1 µM [falling, single point].
In the case of CCCCNS(=O)(=O)c1ccc(NC(=O)C(Sc2ccccc2)c2ccccc2)cc1 (stereo not given), the lipid storage change, negative = inhibition is reported as inconclusive: 7.81%.
In the case of CCOc1ccc(NC(=O)CN2CCN(C(=O)C3CCCO3)CC2)cc1 (stereo not given), the Potency is reported as inconclusive: 0.366 µM [activator, full curve].
For Cc1cc(C(=O)COC(=O)c2ccc(O)cc2)c(C)n1CC(F)(F)F, the Potency was inconclusive: 25.9 µM [cytotoxic, partial curve].
In the case of Cc1cccc(NC(=O)Cc2ccc(-c3ccccc3)cc2)n1, the lipid storage change, negative = inhibition is reported as inconclusive: 23.6%.
In the case of CC12CCC(C(=O)Nc3ncc([N+](=O)[O-])s3)(OC1=O)C2(C)C (stereo not given), the lipid storage change, negative = inhibition is reported as inconclusive: -36.5%.
In the case of CCn1c(CSc2nnc(C)n2-c2ccccc2)nc2cc(S(=O)(=O)N(C)C)ccc21, the lipid storage change, negative = inhibition is reported as inconclusive: 14%.
With NC(=O)C1CCN(C(=O)CNC(=O)c2ccc(Br)o2)CC1 the Potency was inconclusive: 0.326 µM [activator, full curve].
In the case of Cc1ccc(C(=O)OCC(=O)Nc2ccccc2Sc2ccccc2)cc1C, the lipid storage change, negative = inhibition is reported as inconclusive: 24.8%.
For C#CNC(=O)C1(CC=C)CCNCC1, the Potency was inconclusive: 29.1 µM [falling, single point].
In the case of COc1ccc(C(=O)NNC(=O)CCn2nnc(-c3ccc(Cl)cc3)n2)cc1OC, the lipid storage change, negative = inhibition is reported as inconclusive: 15.7%.
With CCN1CCN(CCC(=O)Nc2ccccc2OC)CC1 the lipid storage change, negative = inhibition was inconclusive: -3.7%.
With COc1cc(NC(=S)N2CCCCC2C)c(OC)cc1Cl (stereo not given) the lipid storage change, negative = inhibition was inconclusive: -48.8% [at 0.00295 µM].
In the case of O=C(NCc1ccccn1)c1ccc(CNS(=O)(=O)c2cccc(Cl)c2)cc1, the lipid storage change, negative = inhibition is reported as inconclusive: 16.7%.
In the case of COC(=O)/C(=C\C(=O)c1ccccc1)Nc1cccc(C(F)(F)F)c1, the lipid storage change, negative = inhibition is reported as inconclusive: -13.8%.
In the case of Cc1coc2cc3oc(=O)c4c(c3cc12)CCC4, the Potency is reported as inconclusive: 16.4 µM [activator, partial curve].
For CS(=O)(=O)c1ccccc1-c1nc(-c2ccc([N+](=O)[O-])cc2)no1, the lipid storage change, negative = inhibition was inconclusive: 12.4%.
With O=c1[nH]c2cc3c(cc2cc1C(c1nnnn1CC1CCCO1)N1CCCCCC1)OCCO3 (stereo not given) the lipid storage change, negative = inhibition was inconclusive: 11%.
In the case of O=C(NCc1ccccn1)c1cc2ccccn2n1, the Potency is reported as inconclusive: 1.46 µM [activator, partial curve].
In the case of COc1cccc(C2C=C(c3ccc(OC)cc3OC)Nc3nnnn32)c1 (stereo not given), the lipid storage change, negative = inhibition is reported as inconclusive: 14.5%.
For O=C(CSc1nccc(=O)[nH]1)Nc1ccc(N2CCOCC2)cc1, the lipid storage change, negative = inhibition was “inactive”.
With Cc1ccc(OCCCSc2n[nH]c(N)n2)cc1 the lipid storage change, negative = inhibition was inconclusive: 19.5%.
With CCNC(=S)N1CCN=C1Nc1nc(C)cc(C)n1 the lipid storage change, negative = inhibition was “inactive”.
With C/C(=N\Nc1ccc(C#N)cc1[N+](=O)[O-])c1ccc(C)o1 the lipid storage change, negative = inhibition was inconclusive: -6.8%.
In the case of N#Cc1c(NC(=O)CSc2ccccn2)oc(-c2ccccc2)c1-c1ccccc1, the Potency is reported as inconclusive: 6.51 µM [rising, partial curve].
For CCOc1cc(N2CCOCC2)c(OCC)cc1NC(=O)CN1C(=O)NC2(CCCCCCC2)C1=O, the lipid storage change, negative = inhibition was inconclusive: 9.85%.
For Cc1ccc(-n2nc3c(c2NC(=O)CCC2CCCCC2)CS(=O)C3)cc1 (stereo not given), the Potency was inconclusive: 0.326 µM [activator, single point].
With COc1ccc(S(=O)(=O)c2c(O)c3ccc(C(=O)Nc4ccccc4F)cc3[nH]c2=O)cc1 the Potency was inconclusive: 6.51 µM [falling, single point].
In the case of Cn1c(COc2ccc3ccccc3c2)nnc1SCC(=O)OC1CCCCC1, the lipid storage change, negative = inhibition is reported as inconclusive: -5.31%.
With COc1ccccc1N1CCN(/N=C\c2ccccc2)CC1 the Potency was inconclusive: 20.6 µM [activator, single point].
With CC(=C/c1ccco1)/C=N/N1CCN(c2ccccc2)CC1 the Potency was inconclusive: 0.517 µM [activator, full curve].
With N[C@@H](Cc1ccc(O)cc1)c1nnc([C@H](CCC(=O)O)NC(=O)C2CCNCC2)o1 the lipid storage change, negative = inhibition was inconclusive: -9.51%.
With Cc1cc(NC(=O)CCC(=O)N(Cc2cccs2)C(C(=O)NC2CCCC2)c2ccncc2)no1 (stereo not given) the Potency was inconclusive: 2.59 µM [activator, full curve].
In the case of FC(F)(F)c1cccc(CNC2c3ccccc3-c3ccccc32)c1, the lipid storage change, negative = inhibition is reported as inconclusive: 30%.
With CCOC(=O)N1CCC(NC(=O)CCc2c(C)nc3c(c(C)nn3C(C)(C)C)c2C)CC1 the lipid storage change, negative = inhibition was inconclusive: -2.17%.
For CCOc1ccccc1C(=O)Nc1cc(C)ccc1NC(=O)c1ccco1, the lipid storage change, negative = inhibition was inconclusive: 12.2%.
In the case of Cc1ccc([N+](=O)[O-])cc1S(=O)(=O)NCCc1cn2ccccc2n1, the lipid storage change, negative = inhibition is reported as inconclusive: 2.6%.
With COc1cccc(N2CCN(C(=O)c3cccc(N4C(=O)NC5CC4(C)Oc4c(OC)cccc45)c3)CC2)c1 (stereo not given) the Potency was inconclusive: 3.26 µM [activator, partial curve].
With O=C(O)Cn1c(Cc2ccccc2)nc2ccccc21 the lipid storage change, negative = inhibition was inconclusive: 40.3%.
For CCOC(=O)c1c(C)n(S(=O)(=O)c2ccc(C)cc2)c2ccc(O)c(C(=O)O)c12, the Potency was inconclusive: 25.9 µM [activator, partial curve].
In the case of O=C(COC(=O)c1ccc(O)cc1)Nc1ncc(Cl)cc1Cl, the lipid storage change, negative = inhibition is reported as inconclusive: 34.5%.
With O=C1CN(C(=O)/C=C/c2ccccc2F)c2ccccc2N1 the lipid storage change, negative = inhibition was inconclusive: 59.5%.
With CCOc1ccc(CCNC(=O)CN2C(=O)COc3ccc(S(=O)(=O)N4CCOCC4)cc32)cc1 the Potency was inconclusive: 1.3 µM [activator, single point].
For CCOc1ccccc1C1CC(c2ccc(F)cc2)Nc2nc(N)nn21 (stereo not given), the lipid storage change, negative = inhibition was inconclusive: 8.08% [at 9.22 µM].
For CCC(c1nnc(SCC(=O)NNC(=O)c2ccccc2)n1Cc1ccccc1)N(C)C (stereo not given), the lipid storage change, negative = inhibition was “inconclusive”.
For COc1ccc(NC(=S)NC2CCCCC2)cn1, the lipid storage change, negative = inhibition was inconclusive: 6.28%.
For O=C(NP(=O)(N1CCCC1)N1CCCC1)C1=C(N2CCOCC2)/C(=C/c2cccc([N+](=O)[O-])c2)CC1, the lipid storage change, negative = inhibition was “inactive”.
For COc1ccc(NC(=O)CSc2nc3ccncc3[nH]2)c(OC)c1, the Potency was inconclusive: 29.1 µM [activator, single point].
With COC(CNC(=O)CN1CCN(Cc2ccccc2F)C1=O)OC the Potency was inconclusive: 25.9 µM [activator, single point].
In the case of Cc1ccc(OCC(=O)Nc2cc(NC(=O)COc3ccc(C)cc3)cc(C(=O)O)c2)cc1, the lipid storage change, negative = inhibition is reported as inconclusive: -4.51%.
For O=C1c2ccccc2C(=O)N1CCCc1cn(C[C@H]2CC[C@@H]([C@@H]3CC[C@H](Cn4cc(CCCN5C(=O)c6ccccc6C5=O)nn4)O3)O2)nn1, the lipid storage change, negative = inhibition was inconclusive: -35.5%.
In the case of N#Cc1ccc(-c2ccccc2)nc1Sc1ccc(F)cc1, the lipid storage change, negative = inhibition is reported as inconclusive: 470%.
In the case of O=c1cc(-c2ccccc2)n(S(=O)(=O)c2ccccc2)o1, the Potency is reported as inconclusive: 18.4 µM [falling, single point].
For CCN(C(=O)COC(=O)/C=C/c1cnc2ccccc2n1)c1ccccc1, the lipid storage change, negative = inhibition was inconclusive: 11%.
In the case of COCCCNC(=O)CC1Oc2ccccc2NC1=O (stereo not given), the Potency is reported as inconclusive: 23.1 µM [falling, single point].
In the case of O=C(Nc1ccc2ccccc2c1)c1ccc(NS(=O)(=O)c2ccc(Br)s2)cc1, the lipid storage change, negative = inhibition is reported as inconclusive: 30.4%.
In the case of CCc1nn(C(C)C(=O)N2CCN(Cc3ccccc3)CC2)c(=O)c2cc3occc3n12 (stereo not given), the lipid storage change, negative = inhibition is reported as inconclusive: 13.8%.
In the case of O=C(CSc1nnc(-c2cccs2)n1-c1ccccc1)c1ccc2c(c1)OCCO2, the Potency is reported as inconclusive: 4.61 µM [activator, single point].
